PubChem BioAssay AID504834 (National Center for Advancing Translational Sciences (NCATS), 2011)
In all, about 320,000 compounds went through this assay and about 22,000 (6.9%) were called active. The inconclusive results got no clear call from the source; some entries with a clear call stand among them for comparison. Calls follow the shape of the dose curve; as a rule, active = well fitted inhibition curve with a large enough effect; inconclusive = small, poorly fitted or top-dose-only effect, or another doubt; inactive = no such curve, though single readings can be large or run the other way. Where the call is inconclusive, the potency comes from a doubtful curve fit.
% is scaled to controls: 0 for no effect and ±100 for the full control effect; potency is read from the fitted curve at half-maximal effect.

Test: Primary qHTS for delayed death inhibitors of the malarial parasite plastid, 96 hour incubation
Details: P. falciparum luciferase reporter growth; series mostly up to 28.7 µM; activity change, negative = inhibition: at the top concentration
Method in brief: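 P. falciparum expressing integrated firefly luciferase, in erythrocytes at 2% hematocrit, 0.05% parasitemia, incubated with compounds 96 h at 37 C, 5% CO2. Growth inhibition read as loss of luminescence; two-generation exposure targets delayed-death apicoplast inhibitors.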
In the case of `Cc1ccc(S(=O)(=O)NCc2ccccc2)cc1C(=O)N(C)CC(=O)Nc1c(Cl)cccc1Cl`, the “activity change, negative = inhibition” value is reported as inactive: -3.09%. In the case of `COC(=O)C1=C(C)N(Cc2ccc(C)cc2)C(=O)/C1=C\c1cc(OC)c(OC)c(OC)c1`, the “activity change, negative = inhibition” value is reported as inactive: 33.6%. With `CCn1c(O)c(N=N)c2ccccc21` the “activity change, negative = inhibition” value was inactive: 21.6%. With `CSc1ccc(CN(C)CC(=O)NCCc2ccccc2)cc1` the “activity change, negative = inhibition” value was inactive: 64.4%. With `Cc1cc(O)cc(O)c1C(=O)Cc1cscn1` the activity change, negative = inhibition was inactive: 9.08% [at 5.75 µM]. With `CN(C)c1ccc(-c2noc(-c3ccccc3O)n2)cc1` the “activity change, negative = inhibition” value was inactive: -23.8%. For `C=CCSc1nc(C)c(CCCC)c(=O)[nH]1`, the “activity change, negative = inhibition” value was inactive: 25.5%. For `COC(=O)C1=C(C)NC2=C(C(=O)CC(C)(C)C2)C1c1ccccn1` (stereo not given), the Potency was active: 9.28 µM. With `CC(=O)OC(C(=O)N1CCN(c2ccc(F)cc2)CC1)c1ccccc1` (stereo not given) the Potency was active: 11.7 µM. In the case of `CCN(CCn1cccn1)C(=O)CC1C(=O)NCCN1Cc1ccc(F)c(F)c1` (stereo not given), the Potency is reported as inconclusive: 18.5 µM [inhibitor, single point]. In the case of `O=C(O)C1(c2ccccc2)CCN(S(=O)(=O)c2ccc(Br)cc2)CC1`, the Potency is reported as inconclusive: 14.7 µM [inhibitor, partial curve, poor fit]. In the case of `CN(CC1CCCO1)S(=O)(=O)c1ccc(C(=O)Nc2ccc(F)cc2)cc1` (stereo not given), the “activity change, negative = inhibition” value is reported as inactive: -8.74%. In the case of `CCOC(=O)N1CCN(S(=O)(=O)N2CCCC(C(=O)NCc3ccccc3OC)C2)CC1` (stereo not given), the Potency is reported as inconclusive: 16.5 µM [inhibitor, single point]. For `CCOc1cc(CN2CCN(c3cccc(C(F)(F)F)c3)CC2)ccc1OC`, the Potency was inconclusive: 18.5 µM [inhibitor, single point]. In the case of `CN(C)C(CNC(=O)CCc1nc2sc3c(c2c(=O)[nH]1)CCCC3)c1ccccc1` (stereo not given), the Potency is reported as inconclusive: 14.7 µM [inhibitor, partial curve, poor fit]. For `Cc1ccc(-c2cc(C(=O)Nc3ccc(S(=O)(=O)Nc4nccs4)cc3)c3ccccc3n2)c(C)c1`, the “activity change, negative = inhibition” value was inactive: -18.6%. For `CC(C)(C)C1CCc2c(C(=O)N/N=C/c3cccs3)csc2C1` (stereo not given), the Potency was inconclusive: 0.0738 µM [inhibitor, full curve, poor fit]. With `O=C(NCC(=O)N(c1cccc(F)c1)C(C(=O)NC1CCCC1)c1ccncc1)c1cccs1` (stereo not given) the Potency was inconclusive: 11.7 µM [inhibitor, single point]. For `CCSc1nc2sc3c(c2c(=O)n1-c1ccc(C)cc1)CCN(C)C3`, the Potency was active: 0.928 µM. For `COc1ccc(NC(=O)C2CCCN(S(=O)(=O)c3ccc4[nH]c(=O)ccc4c3)C2)cc1OC` (stereo not given), the Potency was active: 11.7 µM. For `CCOc1ccc(CC(=O)Nc2sc(Cc3ccccc3)cc2C(N)=O)cc1OCC`, the Potency was active: 11.7 µM. For `Cc1ccccc1-n1c(SCC(=O)N2CCCCC2)nc(O)cc1=O`, the Potency was inconclusive: 10.4 µM [inhibitor, single point]. For `CCN1C(=O)c2ccccc2S(=O)c2ccc(C(=O)NCCN(CC(C)C)CC(C)C)cc21` (stereo not given), the “activity change, negative = inhibition” value was inactive: 76.3%. In the case of `Cc1coc2c(C)c3oc(=O)c(CCC(=O)NCCC(=O)O)c(C)c3cc12`, the “activity change, negative = inhibition” value is reported as inactive: 69.2%. For `COc1ccccc1C(=O)NCCC(=O)NCC1COc2ccccc2O1` (stereo not given), the Potency was inconclusive: 9.28 µM [inhibitor, single point]. With `CCOC(=O)N1CCC(NC(=S)Nc2ccc3nc(N4CCN(CC)CC4)cc(C)c3c2)CC1` the Potency was inconclusive: 5.86 µM [inhibitor, partial curve]. With `Cc1cc(C)nc(NC(=O)CSc2ncccn2)n1` the Potency was inconclusive: 20.8 µM [inhibitor, partial curve, poor fit]. For `O=C(O)CCCNC(=O)c1ccc(NC(=O)Cc2ccc(Cl)cc2)cc1`, the Potency was inconclusive: 1.17 µM [inhibitor, partial curve, poor fit]. For `CCN(CC(=O)Nc1ccc(NC(C)=O)cc1)C(=O)COc1ccc(C(=O)c2ccccc2)cc1`, the Potency was inconclusive: 10.4 µM [inhibitor, single point]. In the case of `COc1cc(-c2noc(CCCC(=O)NCc3ccco3)n2)cc(OC)c1OC`, the Potency is reported as inconclusive: 8.28 µM [inhibitor, partial curve, poor fit]. In the case of `Cn1c(SCC(=O)c2c(N)n(C)c(=O)n(C)c2=O)nnc1-c1ccccc1`, the Potency is reported as inconclusive: 4.15 µM [inhibitor, single point]. In the case of `Cc1cc(-c2c(C)[nH]n(-c3ccc(Cl)cc3)c2=O)n(-c2ccc(Cl)cc2)n1`, the Potency is reported as active: 1.04 µM. With `Cc1cccc(N2CCN(C(=O)C3CCN(S(=O)(=O)c4cccnc4)CC3)CC2)c1C` the Potency was inconclusive: 18.5 µM [inhibitor, single point]. With `COc1ccc(N2CCN(Cc3nc4sc(C)c(C)c4c(=O)[nH]3)CC2)cc1` the “activity change, negative = inhibition” value was inactive: 0%. In the case of `CC1CSc2n(-c3cccc(C(F)(F)F)c3)cc(-c3ccccc3)[n+]21` (stereo not given), the Potency is reported as inconclusive: 1.47 µM [inhibitor, full curve]. For `Cc1ccc(CSCC(=O)Nc2c(C)n(C)n(-c3ccccc3)c2=O)cc1`, the Potency was inconclusive: 0.0928 µM [inhibitor, full curve, poor fit]. With `COc1ccc(NC(=O)C2CCCN(C)C2)cc1OCC(C)C` (stereo not given) the “activity change, negative = inhibition” value was inactive: 18%. With `CCOc1ccc(C(C)NC(=O)CN2C(=O)NC3(CCCCC3)C2=O)cc1OCC` (stereo not given) the Potency was inconclusive: 11.7 µM [inhibitor, partial curve, poor fit]. In the case of `Cc1ccc(C(=O)NCCc2nnc3ccc(SCC(=O)Nc4cc(C)on4)nn23)cc1`, the Potency is reported as inconclusive: 1.04 µM [inhibitor, partial curve, poor fit]. With `CC1CC[C@@]2(NC1)OC1CC3C4CC[C@@H]5CC(O)CC[C@@]5(C)C4CC[C@]3(C)C1C2C` (stereo not given in full) the Potency was inconclusive: 15.1 µM [inhibitor, single point]. With `COc1ccccc1OCc1nc(C#N)c(N2CCC(C(N)=O)CC2)o1` the Potency was inconclusive: 2.94 µM [inhibitor, full curve, poor fit]. With `Cc1ccc(C(=O)Nc2ccccc2OC(F)F)cc1` the “activity change, negative = inhibition” value was inactive: 29.2%. In the case of `N#Cc1c2c(c(NCc3ccco3)n3c1nc1ccccc13)CCC2`, the Potency is reported as active: 0.738 µM. With `Cn1cc(Br)c(C(=O)NNC(=O)Cc2ccc(Cl)cc2)n1` the “activity change, negative = inhibition” value was inactive: 17.9%. For `CCCN(CC(=O)Nc1ccc(F)c(F)c1F)C(=O)c1cc([N+](=O)[O-])ccc1N1CCOCC1`, the Potency was inconclusive: 18.5 µM [inhibitor, single point].
